Data reported in patent US6518035B1, “Targeted methods of drug screening using co-culture methods” (Rosetta Inpharmatics, Inc., priority 1998, dated 2003).
Like-named read-outs stand apart in the source and are kept apart here.

Chains of the proteins cited; added tags and fusions are not shown. Lines headed by an entry give the natural chain unless they say otherwise; changes in a name come on top.
UniProt P10614: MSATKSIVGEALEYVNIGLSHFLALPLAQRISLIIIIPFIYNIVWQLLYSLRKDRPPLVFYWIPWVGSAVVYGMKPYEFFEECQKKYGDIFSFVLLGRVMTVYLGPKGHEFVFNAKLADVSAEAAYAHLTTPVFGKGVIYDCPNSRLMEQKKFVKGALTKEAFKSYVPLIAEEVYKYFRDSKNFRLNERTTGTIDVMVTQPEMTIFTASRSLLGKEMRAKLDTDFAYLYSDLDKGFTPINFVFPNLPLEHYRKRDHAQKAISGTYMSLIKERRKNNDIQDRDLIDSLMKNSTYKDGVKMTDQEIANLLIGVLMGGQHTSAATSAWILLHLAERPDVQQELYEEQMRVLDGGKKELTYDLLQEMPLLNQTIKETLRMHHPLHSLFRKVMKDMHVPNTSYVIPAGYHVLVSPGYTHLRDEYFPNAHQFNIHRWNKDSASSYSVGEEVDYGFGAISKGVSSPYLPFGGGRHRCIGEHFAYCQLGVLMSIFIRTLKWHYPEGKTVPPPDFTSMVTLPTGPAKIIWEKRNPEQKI

Target: Erg11p (Saccharomyces cerevisiae, UniProt P10614)
Conditions: 25 target and 25,000 decoy cells (1:1000), 225 μl, 30° C., up to ten days

Clc1ccc(CSC(Cn2ccnc2)c2ccc(Cl)cc2Cl)cc1 (centres unmarked) [sulconazole]
fluorescent signal of co-culture versus no-drug treatment (0.5 μg/ml drug plus 0.1% DMSO): significant positive signals | fluorescent signal of co-culture versus no-drug treatment (5 μg/ml drug plus 1% DMSO): too severe a growth inhibition to produce positive signals
